The target in one assay is BMP9 (UniProt Q9UK05). Briefly: Biacore SPR; kinetics indeterminate (transient). A general note: Surface plasmon resonance follows binding to a sensor surface in real time, without labels.
A further assay concerns the target T1, activin B (UniProt P09529).
T1 sequence (looked up): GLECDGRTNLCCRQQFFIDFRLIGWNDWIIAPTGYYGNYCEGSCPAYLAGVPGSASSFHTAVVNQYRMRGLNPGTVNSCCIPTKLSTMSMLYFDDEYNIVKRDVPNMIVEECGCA
Briefly: Biacore SPR.

Chains of the proteins cited; added tags and fusions are not shown. Lines headed by an entry give the natural chain unless they say otherwise; changes in a name come on top. Residues count along the entry.
UniProt Q9UK05, residues 320-429: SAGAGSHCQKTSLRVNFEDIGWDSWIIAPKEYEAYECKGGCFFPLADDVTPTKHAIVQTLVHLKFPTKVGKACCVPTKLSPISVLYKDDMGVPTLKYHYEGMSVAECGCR
UniProt P27037: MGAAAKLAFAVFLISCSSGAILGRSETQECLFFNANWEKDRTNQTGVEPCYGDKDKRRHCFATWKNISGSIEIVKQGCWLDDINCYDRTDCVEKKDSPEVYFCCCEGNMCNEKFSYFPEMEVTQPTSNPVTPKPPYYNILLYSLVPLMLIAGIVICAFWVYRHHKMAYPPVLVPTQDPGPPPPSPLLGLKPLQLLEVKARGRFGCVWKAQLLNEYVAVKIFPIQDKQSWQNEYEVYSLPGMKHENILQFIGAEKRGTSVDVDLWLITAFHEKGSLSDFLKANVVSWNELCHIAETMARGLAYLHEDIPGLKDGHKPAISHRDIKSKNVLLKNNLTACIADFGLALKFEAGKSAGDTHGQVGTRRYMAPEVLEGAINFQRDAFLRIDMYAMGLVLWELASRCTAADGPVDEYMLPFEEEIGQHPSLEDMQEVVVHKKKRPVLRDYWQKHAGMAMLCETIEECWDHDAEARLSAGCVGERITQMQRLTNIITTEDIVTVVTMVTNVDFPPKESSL

These are yes or no findings as the source states them, for the method shown. Some binding calls cover weakened binding; strength is not graded here.

As to “ActRIIA-Fc homodimer (from UniProt P27037 20-135) (Fc fusion)”, the binding result with BMP9 and with activin B was “binds” in each case.

Values taken from patent US20190225669A1.
